# Source: the supplement of paper PMC12823440, “Inhibitors supercharge kinase turnover through native proteolytic circuits” (Nature, 2025)
# The chains behind the UniProt entries cited, without tags or fusion partners. Where a name states a change or a piece, a line headed by the entry shows the natural chain unless it says otherwise.
# UniProt P28482, whole entry: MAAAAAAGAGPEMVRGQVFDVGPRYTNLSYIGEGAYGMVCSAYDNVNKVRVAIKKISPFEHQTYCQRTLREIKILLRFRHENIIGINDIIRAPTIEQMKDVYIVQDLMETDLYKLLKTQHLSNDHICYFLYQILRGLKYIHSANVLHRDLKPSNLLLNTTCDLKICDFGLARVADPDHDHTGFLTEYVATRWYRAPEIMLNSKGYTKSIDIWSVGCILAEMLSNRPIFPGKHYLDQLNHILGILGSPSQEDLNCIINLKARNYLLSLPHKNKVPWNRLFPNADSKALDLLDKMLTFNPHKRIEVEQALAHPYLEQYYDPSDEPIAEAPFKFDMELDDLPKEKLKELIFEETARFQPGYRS
# UniProt Q9BUB5: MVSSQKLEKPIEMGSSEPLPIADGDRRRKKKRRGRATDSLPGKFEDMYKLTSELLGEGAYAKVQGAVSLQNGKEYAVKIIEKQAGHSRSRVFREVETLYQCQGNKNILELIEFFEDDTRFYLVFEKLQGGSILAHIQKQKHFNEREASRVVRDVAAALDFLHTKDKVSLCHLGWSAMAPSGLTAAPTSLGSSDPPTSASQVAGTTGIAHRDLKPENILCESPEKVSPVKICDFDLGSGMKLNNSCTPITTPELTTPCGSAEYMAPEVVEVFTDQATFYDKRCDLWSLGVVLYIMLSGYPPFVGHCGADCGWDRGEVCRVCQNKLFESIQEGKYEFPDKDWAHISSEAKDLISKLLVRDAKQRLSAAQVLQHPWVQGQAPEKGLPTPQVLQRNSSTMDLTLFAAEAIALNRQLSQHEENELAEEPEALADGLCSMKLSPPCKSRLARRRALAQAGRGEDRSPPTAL
# UniProt O96013: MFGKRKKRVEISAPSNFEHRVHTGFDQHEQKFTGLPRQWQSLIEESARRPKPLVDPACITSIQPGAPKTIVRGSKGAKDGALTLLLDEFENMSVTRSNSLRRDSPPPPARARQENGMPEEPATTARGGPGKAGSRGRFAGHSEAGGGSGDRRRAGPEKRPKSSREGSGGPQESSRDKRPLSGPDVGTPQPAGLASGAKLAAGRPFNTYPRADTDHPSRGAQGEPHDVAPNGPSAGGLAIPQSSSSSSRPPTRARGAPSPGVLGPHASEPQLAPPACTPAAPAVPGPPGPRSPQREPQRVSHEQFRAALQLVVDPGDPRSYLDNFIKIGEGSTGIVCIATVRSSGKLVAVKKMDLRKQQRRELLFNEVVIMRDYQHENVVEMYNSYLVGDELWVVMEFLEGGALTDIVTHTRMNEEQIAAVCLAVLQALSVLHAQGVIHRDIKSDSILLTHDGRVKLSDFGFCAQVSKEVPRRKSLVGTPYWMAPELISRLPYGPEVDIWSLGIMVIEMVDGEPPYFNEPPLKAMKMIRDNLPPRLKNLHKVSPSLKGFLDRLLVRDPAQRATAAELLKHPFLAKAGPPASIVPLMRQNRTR
# UniProt Q15118, whole entry, looked up: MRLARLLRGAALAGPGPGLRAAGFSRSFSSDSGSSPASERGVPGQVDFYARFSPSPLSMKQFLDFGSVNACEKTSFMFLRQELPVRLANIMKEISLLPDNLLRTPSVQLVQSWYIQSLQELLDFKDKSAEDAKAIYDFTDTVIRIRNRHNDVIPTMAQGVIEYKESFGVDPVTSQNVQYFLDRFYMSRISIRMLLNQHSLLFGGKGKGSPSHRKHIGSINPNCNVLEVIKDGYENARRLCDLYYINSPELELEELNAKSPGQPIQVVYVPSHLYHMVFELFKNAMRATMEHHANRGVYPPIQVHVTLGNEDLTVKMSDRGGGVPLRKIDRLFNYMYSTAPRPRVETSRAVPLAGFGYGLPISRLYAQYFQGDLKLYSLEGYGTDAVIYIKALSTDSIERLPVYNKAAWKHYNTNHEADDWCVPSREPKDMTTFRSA
# UniProt O15530: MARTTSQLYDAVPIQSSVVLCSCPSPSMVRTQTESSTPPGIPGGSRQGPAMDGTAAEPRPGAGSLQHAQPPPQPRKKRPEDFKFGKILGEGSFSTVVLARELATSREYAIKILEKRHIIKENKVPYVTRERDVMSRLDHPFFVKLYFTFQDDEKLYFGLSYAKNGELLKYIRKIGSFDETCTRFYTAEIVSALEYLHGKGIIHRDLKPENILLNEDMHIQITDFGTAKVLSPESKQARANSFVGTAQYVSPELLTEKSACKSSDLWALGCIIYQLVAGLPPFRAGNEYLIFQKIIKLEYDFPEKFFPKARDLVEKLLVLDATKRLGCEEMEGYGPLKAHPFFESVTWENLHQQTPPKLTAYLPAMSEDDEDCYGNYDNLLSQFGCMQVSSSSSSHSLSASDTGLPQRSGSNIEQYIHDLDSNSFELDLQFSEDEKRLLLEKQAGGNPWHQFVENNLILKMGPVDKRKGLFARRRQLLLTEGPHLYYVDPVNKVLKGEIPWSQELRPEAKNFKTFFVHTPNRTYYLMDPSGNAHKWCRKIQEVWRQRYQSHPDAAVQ
# UniProt P42356, whole entry, looked up: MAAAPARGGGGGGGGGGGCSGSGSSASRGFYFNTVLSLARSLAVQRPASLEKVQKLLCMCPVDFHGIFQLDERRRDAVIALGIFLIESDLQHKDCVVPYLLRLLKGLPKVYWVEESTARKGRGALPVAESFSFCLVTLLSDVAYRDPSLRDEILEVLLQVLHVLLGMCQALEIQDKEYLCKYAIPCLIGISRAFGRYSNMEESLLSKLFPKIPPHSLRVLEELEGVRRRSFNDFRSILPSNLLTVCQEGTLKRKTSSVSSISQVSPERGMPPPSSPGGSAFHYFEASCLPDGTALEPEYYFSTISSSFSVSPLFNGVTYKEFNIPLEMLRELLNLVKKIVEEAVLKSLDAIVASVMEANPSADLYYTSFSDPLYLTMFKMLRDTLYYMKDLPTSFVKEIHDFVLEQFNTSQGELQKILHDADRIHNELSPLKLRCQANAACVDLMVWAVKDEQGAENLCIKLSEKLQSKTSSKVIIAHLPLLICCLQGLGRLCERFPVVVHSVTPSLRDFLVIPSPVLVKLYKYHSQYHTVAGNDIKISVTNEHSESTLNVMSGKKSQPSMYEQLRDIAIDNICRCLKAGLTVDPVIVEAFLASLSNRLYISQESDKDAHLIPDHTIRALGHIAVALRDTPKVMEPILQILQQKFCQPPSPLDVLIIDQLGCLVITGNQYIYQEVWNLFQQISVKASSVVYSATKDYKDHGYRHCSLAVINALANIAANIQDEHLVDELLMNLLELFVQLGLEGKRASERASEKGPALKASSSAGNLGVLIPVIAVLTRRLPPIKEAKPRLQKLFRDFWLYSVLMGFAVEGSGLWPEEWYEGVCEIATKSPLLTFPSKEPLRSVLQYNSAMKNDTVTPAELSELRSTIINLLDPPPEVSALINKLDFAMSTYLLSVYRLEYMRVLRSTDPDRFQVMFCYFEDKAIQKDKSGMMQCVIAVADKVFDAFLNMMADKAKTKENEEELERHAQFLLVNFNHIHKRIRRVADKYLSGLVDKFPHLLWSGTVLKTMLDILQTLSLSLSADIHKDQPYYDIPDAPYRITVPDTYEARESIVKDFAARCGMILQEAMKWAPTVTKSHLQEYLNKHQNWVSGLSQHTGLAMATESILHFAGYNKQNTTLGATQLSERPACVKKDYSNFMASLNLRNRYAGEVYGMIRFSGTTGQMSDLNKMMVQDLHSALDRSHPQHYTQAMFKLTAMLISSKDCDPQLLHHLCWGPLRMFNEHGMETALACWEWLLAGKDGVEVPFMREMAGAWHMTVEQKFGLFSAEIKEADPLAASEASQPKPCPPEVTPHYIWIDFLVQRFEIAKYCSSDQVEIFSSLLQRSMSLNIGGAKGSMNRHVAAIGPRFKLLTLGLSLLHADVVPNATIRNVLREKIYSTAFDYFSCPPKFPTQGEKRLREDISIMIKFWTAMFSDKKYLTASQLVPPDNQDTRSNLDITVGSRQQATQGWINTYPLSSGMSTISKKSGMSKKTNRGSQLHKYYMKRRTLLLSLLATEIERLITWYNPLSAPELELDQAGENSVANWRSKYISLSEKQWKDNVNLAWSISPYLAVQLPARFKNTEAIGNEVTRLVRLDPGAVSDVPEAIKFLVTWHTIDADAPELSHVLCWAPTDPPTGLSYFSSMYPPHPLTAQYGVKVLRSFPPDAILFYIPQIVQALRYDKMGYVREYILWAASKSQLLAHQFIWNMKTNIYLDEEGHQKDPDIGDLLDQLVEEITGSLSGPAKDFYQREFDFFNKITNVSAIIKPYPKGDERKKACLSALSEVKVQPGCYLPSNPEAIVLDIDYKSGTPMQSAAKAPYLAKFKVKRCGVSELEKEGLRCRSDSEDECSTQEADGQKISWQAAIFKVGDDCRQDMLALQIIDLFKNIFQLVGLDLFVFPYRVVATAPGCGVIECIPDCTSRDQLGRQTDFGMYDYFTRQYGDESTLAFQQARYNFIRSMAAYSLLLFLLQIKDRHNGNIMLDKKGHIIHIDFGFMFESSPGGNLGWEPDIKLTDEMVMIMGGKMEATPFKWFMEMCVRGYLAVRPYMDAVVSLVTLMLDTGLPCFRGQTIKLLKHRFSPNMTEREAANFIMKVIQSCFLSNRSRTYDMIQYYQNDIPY
# UniProt Q9UBF8: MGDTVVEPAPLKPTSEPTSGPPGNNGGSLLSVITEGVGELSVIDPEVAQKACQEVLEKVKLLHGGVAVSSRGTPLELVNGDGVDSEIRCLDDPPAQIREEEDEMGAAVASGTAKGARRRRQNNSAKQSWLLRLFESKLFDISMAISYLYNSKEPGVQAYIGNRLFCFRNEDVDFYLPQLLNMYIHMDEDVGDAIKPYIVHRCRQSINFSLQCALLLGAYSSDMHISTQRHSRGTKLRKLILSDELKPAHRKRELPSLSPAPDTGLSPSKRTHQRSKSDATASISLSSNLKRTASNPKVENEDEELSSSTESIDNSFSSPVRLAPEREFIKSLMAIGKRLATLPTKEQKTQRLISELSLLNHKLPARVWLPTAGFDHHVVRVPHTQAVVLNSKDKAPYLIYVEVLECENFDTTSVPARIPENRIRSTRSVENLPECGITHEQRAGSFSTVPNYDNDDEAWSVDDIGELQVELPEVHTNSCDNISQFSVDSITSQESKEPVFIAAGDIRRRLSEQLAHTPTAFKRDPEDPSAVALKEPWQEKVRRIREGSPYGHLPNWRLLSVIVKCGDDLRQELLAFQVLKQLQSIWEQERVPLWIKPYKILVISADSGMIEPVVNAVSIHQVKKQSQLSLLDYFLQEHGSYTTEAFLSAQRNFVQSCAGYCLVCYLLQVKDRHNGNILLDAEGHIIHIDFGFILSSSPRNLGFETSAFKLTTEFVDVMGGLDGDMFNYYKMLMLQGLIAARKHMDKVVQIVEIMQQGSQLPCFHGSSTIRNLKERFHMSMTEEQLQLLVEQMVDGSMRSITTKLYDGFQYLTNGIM
# UniProt Q13131: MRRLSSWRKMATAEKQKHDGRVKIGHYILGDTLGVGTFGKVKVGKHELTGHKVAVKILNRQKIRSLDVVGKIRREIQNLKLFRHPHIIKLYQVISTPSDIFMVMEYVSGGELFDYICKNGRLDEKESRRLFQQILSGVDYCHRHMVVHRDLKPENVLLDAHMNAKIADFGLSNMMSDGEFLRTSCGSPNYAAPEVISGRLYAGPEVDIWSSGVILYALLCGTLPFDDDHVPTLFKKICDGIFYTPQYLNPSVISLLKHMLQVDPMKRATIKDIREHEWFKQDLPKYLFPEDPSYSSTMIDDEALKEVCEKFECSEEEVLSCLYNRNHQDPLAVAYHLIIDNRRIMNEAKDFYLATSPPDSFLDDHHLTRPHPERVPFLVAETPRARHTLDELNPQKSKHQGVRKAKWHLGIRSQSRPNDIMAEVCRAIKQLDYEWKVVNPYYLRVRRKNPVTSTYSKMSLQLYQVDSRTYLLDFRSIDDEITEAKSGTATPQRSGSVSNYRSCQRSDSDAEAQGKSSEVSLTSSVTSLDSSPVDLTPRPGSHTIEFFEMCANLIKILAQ
# The list shows a part of the results. The calls rarely recur for the same compound in another form.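 In K562 cells expressing nanoluciferase-fused kinases, luminescence was recorded at 4 h intervals between 2 and 18 h, normalized as percent of control with DMSO at 100% and a positive control at 0%. A significant (2 sigma) signal drop marks a time point as decreased. The authors' rule for a hit is not shown and takes in more than the number of time points.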
# Tests used:
# Assay in all cases: kinase-Nluc reporter destabilization hit call (1 = scored as downregulated) (binary); higher = compound decreases kinase abundance
# Conditions in all cases: K562; 2-18 h
# MAPK1 = MAPK1 (UniProt P28482)
# MAPK4 = MAPK4 (UniProt P31152)
# MAPKAPK2 = MAPKAPK2 (UniProt P49137)
# MKNK1 = MKNK1 (UniProt Q9BUB5)
# NTRK2 = NTRK2 (UniProt Q16620)
# NTRK3 = NTRK3 (UniProt Q16288)
# PAK4 = PAK4 (UniProt O96013)
# PBK = PBK (UniProt Q96KB5)
# PDGFRB = PDGFRB (UniProt P09619)
# PDK1 = PDK1 (UniProt Q15118)
# PDPK1 = PDPK1 (UniProt O15530)
# PIK4CA = PIK4CA (UniProt P42356)
# PIK4CB = PIK4CB (UniProt Q9UBF8)
# PLK1 = PLK1 (UniProt P53350)
# PRKAA1 = PRKAA1 (UniProt Q13131)
# PRKCA = PRKCA (UniProt P17252)
# PTK2 = PTK2 (UniProt Q05397)
# PTK2B = PTK2B (UniProt Q14289)
# RAF1 = RAF1 (UniProt P04049)
# [1] = molecular target: RAF1_S257L (clone: RAF1_mut) (UniProt P04049)
Structure (SMILES),kinase-Nluc reporter destabilization hit call (MAPK1),kinase-Nluc reporter destabilization hit call (MAPK4),kinase-Nluc reporter destabilization hit call (MAPKAPK2),kinase-Nluc reporter destabilization hit call (MKNK1),kinase-Nluc reporter destabilization hit call (NTRK2),kinase-Nluc reporter destabilization hit call (NTRK3),kinase-Nluc reporter destabilization hit call (PAK4),kinase-Nluc reporter destabilization hit call (PBK),kinase-Nluc reporter destabilization hit call (PDGFRB),kinase-Nluc reporter destabilization hit call (PDK1),kinase-Nluc reporter destabilization hit call (PDPK1),kinase-Nluc reporter destabilization hit call (PIK4CA),kinase-Nluc reporter destabilization hit call (PIK4CB),kinase-Nluc reporter destabilization hit call (PLK1),kinase-Nluc reporter destabilization hit call (PRKAA1),kinase-Nluc reporter destabilization hit call (PRKCA),kinase-Nluc reporter destabilization hit call (PTK2),kinase-Nluc reporter destabilization hit call (PTK2B),kinase-Nluc reporter destabilization hit call (RAF1),kinase-Nluc reporter destabilization hit call [1]
C=C[C@H]1[C@H](O[C@@H]2O[C@H](CO)[C@@H](O)[C@H](O)[C@H]2O)OC=C(C(=O)OC)[C@H]1CCOC(=O)c1cc(O)c(O)c(O)c1 [Cornuside] (10 µM),inactive: 0,inactive: 0,inactive: 0,inactive: 0,inactive: 0,inactive: 0,inactive: 0,inactive: 0,inactive: 0,inactive: 0,inactive: 0,inactive: 0,inactive: 0,inactive: 0,inactive: 0,inactive: 0,inactive: 0,inactive: 0,inactive: 0,inactive: 0
O=c1[nH]nc(Sc2ncc([N+](=O)[O-])s2)n1-c1ccc2c(c1)OCCO2 (2.5 µM),inactive: 0,inactive: 0,inactive: 0,inactive: 0,inactive: 0,inactive: 0,inactive: 0,inactive: 0,inactive: 0,inactive: 0,inactive: 0,inactive: 0,inactive: 0,inactive: 0,inactive: 0,inactive: 0,inactive: 0,inactive: 0,inactive: 0,inactive: 0
O=C(N/N=C/c1ccc([N+](=O)[O-])o1)c1ccc(O)cc1 [Nifuroxazide] (10 µM),inactive: 0,inactive: 0,inactive: 0,inactive: 0,inactive: 0,inactive: 0,inactive: 0,inactive: 0,inactive: 0,inactive: 0,inactive: 0,inactive: 0,inactive: 0,inactive: 0,inactive: 0,inactive: 0,inactive: 0,inactive: 0,inactive: 0,inactive: 0
O=c1sn(-c2cccc3ccccc23)c(=O)n1Cc1ccccc1 [Tideglusib] (10 µM),inactive: 0,inactive: 0,inactive: 0,inactive: 0,inactive: 0,inactive: 0,inactive: 0,inactive: 0,inactive: 0,inactive: 0,inactive: 0,inactive: 0,inactive: 0,inactive: 0,inactive: 0,inactive: 0,inactive: 0,inactive: 0,inactive: 0,inactive: 0
Cc1cc(/C=C2\CC/C(=C\c3cc(C)c(O)c(C)c3)C2=O)cc(C)c1O [Pentagamavunon-1] (2.5 µM),inactive: 0,inactive: 0,inactive: 0,inactive: 0,inactive: 0,inactive: 0,inactive: 0,inactive: 0,inactive: 0,inactive: 0,inactive: 0,inactive: 0,inactive: 0,inactive: 0,inactive: 0,inactive: 0,inactive: 0,inactive: 0,inactive: 0,inactive: 0
O=S(=O)(c1cccc2c(Cl)cccc12)N1CCCNCC1 (10 µM),inactive: 0,inactive: 0,inactive: 0,inactive: 0,inactive: 0,inactive: 0,inactive: 0,inactive: 0,inactive: 0,inactive: 0,inactive: 0,inactive: 0,inactive: 0,inactive: 0,inactive: 0,inactive: 0,inactive: 0,inactive: 0,inactive: 0,inactive: 0
C=CC(=O)N1CCN(c2nc(OC[C@@H]3CCCN3C)nc3c2CCN(c2cccc4cccc(C)c24)C3)C[C@@H]1CC#N (2.5 µM),inactive: 0,inactive: 0,inactive: 0,inactive: 0,inactive: 0,inactive: 0,inactive: 0,inactive: 0,inactive: 0,inactive: 0,inactive: 0,inactive: 0,inactive: 0,inactive: 0,inactive: 0,inactive: 0,inactive: 0,inactive: 0,inactive: 0,inactive: 0
O=c1cc(-c2ccc(O)cc2)oc2cc(O)c([C@@H]3O[C@H](CO)[C@@H](O)[C@H](O)[C@H]3O)c(O)c12 [Isovitexin] (10 µM),inactive: 0,inactive: 0,inactive: 0,inactive: 0,inactive: 0,inactive: 0,inactive: 0,inactive: 0,inactive: 0,inactive: 0,inactive: 0,inactive: 0,inactive: 0,inactive: 0,inactive: 0,inactive: 0,inactive: 0,inactive: 0,inactive: 0,inactive: 0
CCn1c2ccccc2c2cc(Nc3ccnc(NCCCN4CCOCC4)n3)ccc21 (2.5 µM),inactive: 0,inactive: 0,inactive: 0,inactive: 0,inactive: 0,inactive: 0,inactive: 0,inactive: 0,inactive: 0,inactive: 0,inactive: 0,inactive: 0,inactive: 0,inactive: 0,inactive: 0,inactive: 0,inactive: 0,inactive: 0,inactive: 0,inactive: 0
COc1ccc(F)cc1C(=O)NCc1ccc(-c2nn([C@@H](C)C(F)(F)F)c(N)c2C(N)=O)cc1 [Pirtobrutinib] (10 µM),inactive: 0,inactive: 0,inactive: 0,inactive: 0,inactive: 0,inactive: 0,inactive: 0,inactive: 0,inactive: 0,inactive: 0,inactive: 0,inactive: 0,inactive: 0,inactive: 0,inactive: 0,inactive: 0,inactive: 0,inactive: 0,inactive: 0,inactive: 0
C[C@@H](Nc1cc(F)cc(F)c1)c1cc(C(=O)N(C)C)cc2c(=O)cc(N3CCOCC3)oc12 (10 µM),inactive: 0,inactive: 0,inactive: 0,inactive: 0,inactive: 0,inactive: 0,inactive: 0,inactive: 0,inactive: 0,inactive: 0,inactive: 0,inactive: 0,inactive: 0,inactive: 0,inactive: 0,inactive: 0,inactive: 0,inactive: 0,inactive: 0,active: 1
CC(=O)Nc1nc(C)c(-c2cc3c(c(S(C)(=O)=O)c2)C(=O)N([C@@H](C)C2CC2)C3)s1 (2.5 µM),inactive: 0,inactive: 0,inactive: 0,inactive: 0,inactive: 0,inactive: 0,inactive: 0,inactive: 0,inactive: 0,inactive: 0,inactive: 0,inactive: 0,inactive: 0,inactive: 0,inactive: 0,inactive: 0,inactive: 0,inactive: 0,inactive: 0,inactive: 0
C=CC(=O)N[C@H]1CCOC[C@H]1Nc1ncc2cc(-c3c(Cl)c(OC)cc(OC)c3Cl)ccc2n1 [Fisogatinib] (10 µM),inactive: 0,inactive: 0,inactive: 0,inactive: 0,inactive: 0,inactive: 0,inactive: 0,inactive: 0,inactive: 0,inactive: 0,inactive: 0,inactive: 0,inactive: 0,inactive: 0,inactive: 0,inactive: 0,inactive: 0,inactive: 0,inactive: 0,inactive: 0
CN(C)CCCn1cc(C2=C(c3c[nH]c4ccccc34)C(=O)NC2=O)c2ccccc21 [Bisindolylmaleimide I] (2.5 µM),inactive: 0,inactive: 0,inactive: 0,inactive: 0,inactive: 0,inactive: 0,inactive: 0,inactive: 0,inactive: 0,inactive: 0,inactive: 0,inactive: 0,inactive: 0,inactive: 0,inactive: 0,inactive: 0,inactive: 0,inactive: 0,inactive: 0,inactive: 0
O=C(CCc1ccc2n1[B-](F)(F)[N+]1=C(c3ccc[nH]3)C=CC1=C2)ON1C(=O)CCC1=O [Py-BODIPY-NHS ester] (2.5 µM),inactive: 0,inactive: 0,inactive: 0,inactive: 0,inactive: 0,inactive: 0,inactive: 0,inactive: 0,inactive: 0,inactive: 0,inactive: 0,inactive: 0,inactive: 0,inactive: 0,inactive: 0,inactive: 0,inactive: 0,inactive: 0,inactive: 0,inactive: 0
CCC(=O)N1CC[C@H](Nc2ncnc3c2CN(c2cnc(OC)c(C(F)(F)F)c2)CC3)C1 [Leniolisib] (10 µM),inactive: 0,inactive: 0,inactive: 0,inactive: 0,inactive: 0,inactive: 0,inactive: 0,inactive: 0,inactive: 0,inactive: 0,inactive: 0,inactive: 0,inactive: 0,inactive: 0,inactive: 0,inactive: 0,inactive: 0,inactive: 0,inactive: 0,inactive: 0

# Reformatted tab-delimited: entries from further up.
Structure (SMILES)	kinase-Nluc reporter destabilization hit call (MAPK1)	kinase-Nluc reporter destabilization hit call (MAPK4)	kinase-Nluc reporter destabilization hit call (MAPKAPK2)	kinase-Nluc reporter destabilization hit call (MKNK1)	kinase-Nluc reporter destabilization hit call (NTRK2)	kinase-Nluc reporter destabilization hit call (NTRK3)	kinase-Nluc reporter destabilization hit call (PAK4)	kinase-Nluc reporter destabilization hit call (PBK)	kinase-Nluc reporter destabilization hit call (PDGFRB)	kinase-Nluc reporter destabilization hit call (PDK1)	kinase-Nluc reporter destabilization hit call (PDPK1)	kinase-Nluc reporter destabilization hit call (PIK4CA)	kinase-Nluc reporter destabilization hit call (PIK4CB)	kinase-Nluc reporter destabilization hit call (PLK1)	kinase-Nluc reporter destabilization hit call (PRKAA1)	kinase-Nluc reporter destabilization hit call (PRKCA)	kinase-Nluc reporter destabilization hit call (PTK2)	kinase-Nluc reporter destabilization hit call (PTK2B)	kinase-Nluc reporter destabilization hit call (RAF1)	kinase-Nluc reporter destabilization hit call [1]
C[C@@H](Nc1cc(F)cc(F)c1)c1cc(C(=O)N(C)C)cc2c(=O)cc(N3CCOCC3)oc12 (10 µM)	inactive: 0	inactive: 0	inactive: 0	inactive: 0	inactive: 0	inactive: 0	inactive: 0	inactive: 0	inactive: 0	inactive: 0	inactive: 0	inactive: 0	inactive: 0	inactive: 0	inactive: 0	inactive: 0	inactive: 0	inactive: 0	inactive: 0	active: 1
CN(C)CCCn1cc(C2=C(c3c[nH]c4ccccc34)C(=O)NC2=O)c2ccccc21 [Bisindolylmaleimide I] (2.5 µM)	inactive: 0	inactive: 0	inactive: 0	inactive: 0	inactive: 0	inactive: 0	inactive: 0	inactive: 0	inactive: 0	inactive: 0	inactive: 0	inactive: 0	inactive: 0	inactive: 0	inactive: 0	inactive: 0	inactive: 0	inactive: 0	inactive: 0	inactive: 0
